{"source": "paper PMC11520253", "key": {"[1]": {"biological_target": "T1, PgcA monoheme domain III (Geobacter sulfurreducens) (UniProt Q74CB3)", "T1 sequence (chain, one c-type heme at the CXXCH motif (axial ligands His459, His491))": "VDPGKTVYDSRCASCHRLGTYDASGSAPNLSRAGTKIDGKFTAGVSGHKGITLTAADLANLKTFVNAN", "test": "AUC; sedimentation velocity of a mixed sample containing all three monoheme domains; samples diluted to 2 μM in 100 mM Tris-HCl, 100 mM NaCl, pH 8; 129,000 G, 20°C, monitored at 408 nm; c(S) analysis in Sedfit; both purified"}, "[2]": {"biological_target": "PgcA monoheme domain II (Geobacter sulfurreducens) (UniProt Q74CB3)", "test": "AUC; sedimentation velocity, each protein alone; 2 μM in 100 mM Tris-HCl, 100 mM NaCl, pH 8; 129,000 G, 20°C, monitored at 408 nm; c(S) analysis in Sedfit; both purified"}, "[3]": {"biological_target": "triheme PgcA (residue 253-C terminus fragment of recombinant PgcA) (Geobacter sulfurreducens) (UniProt Q74CB3)", "test": "AUC; sedimentation velocity, each protein alone; 2 μM in 100 mM Tris-HCl, 100 mM NaCl, pH 8; 129,000 G, 20°C, monitored at 408 nm; c(S) analysis in Sedfit; both purified"}, "[4]": {"biological_target": "T1, PgcA monoheme domain III (Geobacter sulfurreducens)", "test": "AUC; sedimentation velocity, each protein alone; 2 μM in 100 mM Tris-HCl, 100 mM NaCl, pH 8; 129,000 G, 20°C, monitored at 408 nm; c(S) analysis in Sedfit; both purified"}}, "note": "No constants are given. Whether binding was seen depends on the method and setting.", "data": [{"binder": "PgcA monoheme domain II (domain or fragment, UniProt Q74CB3 352-414, one c-type heme at the CXXCH motif (axial ligands His365, Met392)) NGSALYGNNCQACHGSITNSDIQTRTVSAIQSAISGNRGGMGFLSTLTSAEIQAIATSLASAV", "values": [{"measurement": "binding", "setting": "[1]", "value": "no binding (tested: 2 μM)"}, {"measurement": "binding", "setting": "[2]", "value": "no binding (tested: 2 μM)"}]}, {"binder": "triheme PgcA (residue 253-C terminus fragment of recombinant PgcA) (domain or fragment, UniProt Q74CB3 253-511, three c-type hemes (615.17 Da each) at the three CXXCH heme binding motifs) PTPPTPATDGQGLYAANCAACHGALATSEKKGTTLARLQSAVSANAGGMGFLSSLTSAQLQAIVDVLAVAPTPTPTPTPTPTPTPTPTPTPTPTPTPTPNGSALYGNNCQACHGSITNSDIQTRTVSAIQSAISGNRGGMGFLSTLTSAEIQAIATSLASAVTPTPTPTPTPTPTPTPTPTPTPTPTPTPTVDPGKTVYDSRCASCHRLGTYDASGSAPNLSRAGTKIDGKFTAGVSGHKGITLTAADLANLKTFVNAN", "values": [{"measurement": "binding", "setting": "[3]", "value": "no binding (tested: 2 μM)"}]}, {"binder": "PgcA monoheme domain III (domain or fragment, UniProt Q74CB3 444-511, one c-type heme at the CXXCH motif (axial ligands His459, His491)) VDPGKTVYDSRCASCHRLGTYDASGSAPNLSRAGTKIDGKFTAGVSGHKGITLTAADLANLKTFVNAN", "values": [{"measurement": "binding", "setting": "[4]", "value": "no binding (tested: 2 μM)"}]}]}
